# Reference: PMC5996148
# By UniProt entry, the sequences of proteins in these tests, tags left out.
# UniProt Q9Y237, whole entry: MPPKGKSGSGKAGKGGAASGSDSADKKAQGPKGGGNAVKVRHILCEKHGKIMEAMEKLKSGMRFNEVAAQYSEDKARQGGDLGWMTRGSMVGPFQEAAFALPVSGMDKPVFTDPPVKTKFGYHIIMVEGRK
# The other results are listed elsewhere or left out. For some assays here: The source does not settle which construct or isoform was used.
# How the values were obtained:
# Assay in all cases: protein microarray (ProtoArray v5.0), streptavidin-Alexa Fluor 647
# Details in all cases: 3'-biotin; 20 mM Tris (pH 7.5), 5 mM MgCl2, 100 mM KCl, 0.1% Tween-20, A/T-rich and random oligonucleotide blockers; temperature not stated; high values mean tight binding
# [1] = test system: PGDS (human)
# [2] = test system: PGLS (human)
# [3] = test system: PGM1 (human)
# [4] = test system: PGM2L1 (human)
# [5] = test system: PGM3 (human)
# [6] = test system: PHGDH (human)
# [7] = test system: PIM2 (human)
# [8] = target: PIN4 (UniProt Q9Y237)
# [9] = test system: PIPOX (human)
# [10] = test system: PITPNC1 (human)
# [11] = test system: PKIB (human)
# [12] = test system: PKNOX1 (human)
# [13] = test system: PLAT (human)
# [14] = test system: PLS3 (human)
# [15] = test system: PLXDC1 (human)
# [16] = test system: PMCH (human)
# [17] = test system: PNMA-like protein 1 (human)
# [18] = test system: POLE3 (human)
# [19] = test system: POLR2I (human)
# [20] = test system: PPM1A (human)
sequence,measurement,setting,value
GGTGACAGGGGTATGGGGAGGGG [G4-2 biotinylated (Ct1)],binding signal,[1],-0.366 z-score
same,binding signal,[2],-0.384 z-score
same,binding signal,[3],-0.386 z-score
same,binding signal,[4],-0.385 z-score
same,binding signal,[5],-0.398 z-score
same,binding signal,[6],-0.391 z-score
same,binding signal,[7],-0.391 z-score
same,binding signal,[8],3.41 z-score
same,binding signal,[9],-0.367 z-score
same,binding signal,[10],-0.388 z-score
same,binding signal,[11],-0.393 z-score
same,binding signal,[12],-0.38 z-score
same,binding signal,[13],-0.372 z-score
same,binding signal,[14],-0.383 z-score
same,binding signal,[15],-0.382 z-score
same,binding signal,[16],-0.37 z-score
same,binding signal,[17],3.01 z-score
same,binding signal,[18],-0.394 z-score
same,binding signal,[19],-0.395 z-score
same,binding signal,[20],-0.376 z-score

# A portion taken from the entries so far, for reference:
sequence,measurement,setting,value
GGTGACAGGGGTATGGGGAGGGG [G4-2 biotinylated (Ct1)],binding signal,[17],3.01 z-score
same,binding signal,[18],-0.394 z-score
same,binding signal,[19],-0.395 z-score
same,binding signal,[20],-0.376 z-score
